Data reported in PMC10413684, “A bacterial tungsten-containing aldehyde oxidoreductase forms an enzymatic decorated protein nanowire” (Science Advances, 2023).
These are yes or no findings as the source states them, for the method shown. Some binding calls cover weakened binding; strength is not graded here. Sequences can lack the tags named with a protein.

T1: AorA of the variant Δhelix-AOR, lacking the AorA residues from 138 to the C terminus (Aromatoleum aromaticum) (UniProt Q5P144)
T1 sequence: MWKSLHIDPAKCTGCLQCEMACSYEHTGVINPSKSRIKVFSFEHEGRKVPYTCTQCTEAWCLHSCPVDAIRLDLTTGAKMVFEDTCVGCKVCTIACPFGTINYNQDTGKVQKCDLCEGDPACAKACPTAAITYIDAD


These binders were tested against T1, AorA of the variant Δhelix-AOR, lacking the AorA residues from 138 to the C terminus (Aromatoleum aromaticum) (assay: mass photometry; OneMP mass photometer, 10 mM tris pH 8.0, 100 mM KCl, 0.1 mM EDTA, room temperature, sample diluted 10-fold just before measurement; 50 nM in Fig. 2D, E; both purified).

| Binder | binding |
| --- | --- |
| AorB, catalytic tungsten-cofactor-containing subunit of the aldehyde oxidoreductase from Aromatoleum aromaticum (AORAa) (protein) MGWNRKVLRVNLAEGTCTPEPLNMQWADEYLGSRGLATKYLVSETDPKVDPLSPDNKMIMATGPLTGTMASTGGRYTVVTKGPLTGAIACSNSGGFFGAEMKFAGWDMVIFEGRSPTPVYLFIENERAELRDASYLWGRSCWETEESIRAQHQDPLIRVSSIGRAGENQVMFACIVNDLHRAAGRSGVGAVMGSKNLKAVAIRGTKGVSGIRDFPGFVRATSEAKKVLAGNPVTSEGLPKFGTQVLMNVINEMGALPTRNHRDVQFEDASKISAEAMHEKRPSDGKPQLVTNAACFGCTIACGRISAIDKTHFTVKNNPKYWGASGGLEYEAAWALGAANGVGDLEALQYANLLCNEQGMDPISFGATVGAAMELYETGVLTKERIGLDAPFGSADALAKLAEMTATGEGFGKEIGLGSKRLCEKYGHPELSMSVKGQEFPAYDSRGIQGMGLAYATSNRGACHLRGYTVASEVLGVPVKTDPHVIEGKAELVKAFQDATAVFDSAGICVFTSFAWTLADVQPQIAAACDGDWSMDKLATVGERIWNMERQFNNAAGLGAQDDNLPPRLTSEPAKSGPAKGMVNRLAEMLPEYYGVRGWTPEGTPTPETLSRLGLS | binds |
| AorC, FAD-containing NAD-binding subunit of the aldehyde oxidoreductase from Aromatoleum aromaticum (AORAa) (natural protein, AorC of Aromatoleum aromaticum, Rossmann fold with an extended C-terminal domain of three α helices; A single copy per Aor(AB)nC complex; also called FAD-containing subunit; source: Aromatoleum evansii, heterologous expression of the AOR plasmid; Superdex 200 gel filtration for the wild-type complex, not for Δhelix-AOR) MKHVILGNGPAGVIAAETLRRAAPTDDILLFGSEDAPPYSRMAIPYLLEGNIDESGTWLRKSPGHFDRLRIHEMRGRAVSLDSERRRILFDDGHFESWDRLLIATGSHPVRPPIPGIDLPEVQTCWTLEDARAIARFATPGARVLQLGAGFIGCIIMEALAARGVELTVVEMGDRMVPRMMTPTAGGMIRKWVEDQGVRVVTNAGVSRIDCRASNDAPLDVTLSTGEVVVADLVIVAAGVAPNIAFLEATPVHVAKGVLVDDRLQTSVPGIFAAGDVAEAPDLFTGAHLVAAIQPNAADQARVAALNMAGHEARLKGVLAINVLDTLGLISSSFGQWWGEERERGGAGVEHVDEAAYRYLSLQFKDDVLIGATSIGLTEHVGALRGLIHGRVRLGEWKERLLHSPLQFVDAYIARSQQPMALVR | binds |
| AorA of the variant Δhelix-AOR, lacking the AorA residues from 138 to the C terminus (domain or fragment, UniProt Q5P144 1-137) MWKSLHIDPAKCTGCLQCEMACSYEHTGVINPSKSRIKVFSFEHEGRKVPYTCTQCTEAWCLHSCPVDAIRLDLTTGAKMVFEDTCVGCKVCTIACPFGTINYNQDTGKVQKCDLCEGDPACAKACPTAAITYIDAD | no binding (tested: 50 nM) |
